# Test results published in the supplement of paper PMC8728848.
# This is one part of the list.
# B1: Erv41-EDTA (Saccharomyces cerevisiae), Q04651 (protein)
# chain: MKFLVNVALVFMVVYISYIYAAAPEHHHHHHDYDIPTTENLYFQGAMGYIDQQYVVDSQVRDTVQINMDIYVNTKCDWLQINVRDQTMDRKLVLEELQLEEMPFFIPYDTKVNDINEIITPELDEILGEAIPAEFREKLDTRSFFDESDPNKAHLPEFNGCHVFGSIPVNRVSGELQITAKSLGYVASRKAPLEELKFNHVINEFSFGDFYPYIDNPLDNTAQFNQDEPLTTYVYYTSVVPTLFKKLGAEVDTNQYSVNDYRYLYKDVAAKGDKMPGIFFKYNFEPLSIVVSDVRL
# Tests used:
# Experiment in all cases: glycan array binding signal (z-score within array); higher = stronger binding
# Details in all cases: glycan notation: IUPAC condensed, linker removed
# [1] = target: Fuc(a1-2)[Gal(a1-3)]Gal(b1-4)GlcNAc(b1-2)Man(a1-3)[Fuc(a1-2)[Gal(a1-3)]Gal(b1-4)GlcNAc(b1-2)Man(a1-6)]Man(b1-4)GlcNAc(b1-4)GlcNAc
# How it was run: (§1)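 The Consortium for Functional Glycomics database supplied 3228 glycan arrays, of which those lacking an available protein sequence were dropped. The binding signal, a within-array Z-score, was averaged across arrays of the same protein sequence and across linkers. Negative scores can be read as non-binding.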
# [2] = target: Fuc(a1-2)[Gal(a1-3)]Gal(b1-4)GlcNAc(b1-2)Man(a1-3)[Fuc(a1-2)[Gal(a1-3)]Gal(b1-4)GlcNAc(b1-2)Man(a1-6)]Man(b1-4)GlcNAc(b1-4)[Fuc(a1-6)]GlcNAc
# How it was run: as §1
# [3] = target: Fuc(a1-2)[Gal(a1-3)]Gal(b1-4)GlcNAc(b1-3)GalNAc
# How it was run: as §1
# [4] = target: Fuc(a1-2)[Gal(a1-3)]Gal(b1-4)GlcNAc(b1-3)[Fuc(a1-2)[Gal(a1-3)]Gal(b1-4)GlcNAc(b1-6)]GalNAc
# How it was run: as §1
# [5] = target: Fuc(a1-2)[Gal(a1-3)]Gal(b1-4)GlcNAc(b1-6)GalNAc
# How it was run: as §1
# [6] = target: Fuc(a1-2)[Gal(a1-3)]Gal(b1-4)[Fuc(a1-3)]Glc
# How it was run: as §1
# [7] = target: Fuc(a1-2)[Gal(a1-3)]Gal(b1-4)[Fuc(a1-3)]GlcNAc
# How it was run: as §1
# [8] = target: Fuc(a1-2)[Gal(a1-3)]Gal(b1-4)[Fuc(a1-3)]GlcNAc(b1-3)GalNAc
# How it was run: as §1
# [9] = target: Fuc(a1-2)[Gal(a1-4)]Gal(b1-4)GlcNAc
# How it was run: as §1
# [10] = target: Fuc(a1-2)[GalNAc(a1-3)]Gal
# How it was run: as §1
# [11] = target: Fuc(a1-2)[GalNAc(a1-3)]Gal(b1-3)GalNAc(a1-3)[Fuc(a1-2)]Gal(b1-4)GlcNAc
# How it was run: as §1
# [12] = target: Fuc(a1-2)[GalNAc(a1-3)]Gal(b1-3)GalNAc(b1-3)Gal(a1-4)Gal(b1-4)Glc
# How it was run: as §1
# [13] = target: Fuc(a1-2)[GalNAc(a1-3)]Gal(b1-3)GlcNAc
# How it was run: as §1
# [14] = target: Fuc(a1-2)[GalNAc(a1-3)]Gal(b1-3)GlcNAc(b1-2)Man(a1-3)[Fuc(a1-2)[GalNAc(a1-3)]Gal(b1-3)GlcNAc(b1-2)Man(a1-6)]Man(b1-4)GlcNAc(b1-4)GlcNAc
# How it was run: as §1
# [15] = target: Fuc(a1-2)[GalNAc(a1-3)]Gal(b1-3)GlcNAc(b1-2)Man(a1-3)[Fuc(a1-2)[GalNAc(a1-3)]Gal(b1-3)GlcNAc(b1-2)Man(a1-6)]Man(b1-4)GlcNAc(b1-4)[Fuc(a1-6)]GlcNAc
# How it was run: as §1
# [16] = target: Fuc(a1-2)[GalNAc(a1-3)]Gal(b1-3)GlcNAc(b1-3)GalNAc
# How it was run: as §1
# [17] = target: Fuc(a1-2)[GalNAc(a1-3)]Gal(b1-3)GlcNAc(b1-6)GalNAc
# How it was run: as §1
# [18] = target: Fuc(a1-2)[GalNAc(a1-3)]Gal(b1-4)Glc
# How it was run: as §1
# [19] = target: Fuc(a1-2)[GalNAc(a1-3)]Gal(b1-4)GlcNAc
# How it was run: as §1
# [20] = target: Fuc(a1-2)[GalNAc(a1-3)]Gal(b1-4)GlcNAc(b1-2)Man
# How it was run: as §1
# [21] = target: Fuc(a1-2)[GalNAc(a1-3)]Gal(b1-4)GlcNAc(b1-2)Man(a1-3)[Fuc(a1-2)[GalNAc(a1-3)]Gal(b1-4)GlcNAc(b1-2)Man(a1-6)]Man(b1-4)GlcNAc(b1-4)GlcNAc
# How it was run: as §1
# [22] = target: Fuc(a1-2)[GalNAc(a1-3)]Gal(b1-4)GlcNAc(b1-2)Man(a1-3)[Fuc(a1-2)[GalNAc(a1-3)]Gal(b1-4)GlcNAc(b1-2)Man(a1-6)]Man(b1-4)GlcNAc(b1-4)[Fuc(a1-6)]GlcNAc
# How it was run: as §1
# [23] = target: Fuc(a1-2)[GalNAc(a1-3)]Gal(b1-4)GlcNAc(b1-3)Gal(b1-4)GlcNAc
# How it was run: as §1
# [24] = target: Fuc(a1-2)[GalNAc(a1-3)]Gal(b1-4)GlcNAc(b1-3)Gal(b1-4)GlcNAc(b1-3)Gal(b1-4)GlcNAc
# How it was run: as §1
# [25] = target: Fuc(a1-2)[GalNAc(a1-3)]Gal(b1-4)GlcNAc(b1-3)GalNAc
# How it was run: as §1
# [26] = target: Fuc(a1-2)[GalNAc(a1-3)]Gal(b1-4)GlcNAc(b1-3)[Fuc(a1-2)[GalNAc(a1-3)]Gal(b1-4)GlcNAc(b1-6)]GalNAc
# How it was run: as §1
# [27] = target: Fuc(a1-2)[GalNAc(a1-3)]Gal(b1-4)GlcNAc(b1-6)GalNAc
# How it was run: as §1
# [28] = target: Fuc(a1-2)[GalNAc(a1-3)]Gal(b1-4)[Fuc(a1-3)]GlcNAc
# How it was run: as §1
# [29] = target: Fuc(a1-2)[GalNAc(a1-3)]Gal(b1-4)[Fuc(a1-3)]GlcNAc(b1-3)GalNAc
# How it was run: as §1
# [30] = target: Fuc(a1-2)[GalNAc(a1-4)]Gal(b1-4)GlcNAc
# How it was run: as §1
# [31] = target: Fuc(a1-2)[GalNAc(b1-3)]Gal
# How it was run: as §1
# Fuc(a1-3)GlcNAc = target: Fuc(a1-3)GlcNAc
# How it was run: as §1
# [32] = target: Fuc(a1-3)[Gal(b1-4)]Glc6S
# How it was run: as §1
# [33] = target: Fuc(a1-3)[Gal(b1-4)]GlcNAc
# How it was run: as §1
# [34] = target: Fuc(a1-3)[Gal(b1-4)]GlcNAc(b1-2)Man
# How it was run: as §1
# [35] = target: Fuc(a1-3)[Gal(b1-4)]GlcNAc(b1-2)Man(a1-3)[Fuc(a1-3)[Gal(b1-4)]GlcNAc(b1-2)Man(a1-6)]Man(b1-4)GlcNAc(b1-4)GlcNAc
# How it was run: as §1
# [36] = target: Fuc(a1-3)[Gal(b1-4)]GlcNAc(b1-2)Man(a1-3)[Fuc(a1-3)[Gal(b1-4)]GlcNAc(b1-2)Man(a1-6)]Man(b1-4)GlcNAc(b1-4)[Fuc(a1-6)]GlcNAc
# How it was run: as §1
binder,measurement,setting,value
B1,glycan array binding signal (z-score),[1],1.55
same,glycan array binding signal (z-score),[2],-0.299
same,glycan array binding signal (z-score),[3],0.779
same,glycan array binding signal (z-score),[4],0.595
same,glycan array binding signal (z-score),[5],0.141
same,glycan array binding signal (z-score),[6],-0.478
same,glycan array binding signal (z-score),[7],-0.592
same,glycan array binding signal (z-score),[8],0.33
same,glycan array binding signal (z-score),[9],0.519
same,glycan array binding signal (z-score),[10],-0.488
same,glycan array binding signal (z-score),[11],0.174
same,glycan array binding signal (z-score),[12],-0.058
same,glycan array binding signal (z-score),[13],-0.953
same,glycan array binding signal (z-score),[14],0.382
same,glycan array binding signal (z-score),[15],0.311
same,glycan array binding signal (z-score),[16],-0.104
same,glycan array binding signal (z-score),[17],-0.093
same,glycan array binding signal (z-score),[18],-0.657
same,glycan array binding signal (z-score),[19],0.079
same,glycan array binding signal (z-score),[20],-0.289
same,glycan array binding signal (z-score),[21],0.526
same,glycan array binding signal (z-score),[22],1.01
same,glycan array binding signal (z-score),[23],0.162
same,glycan array binding signal (z-score),[24],0.784
same,glycan array binding signal (z-score),[25],-0.654
same,glycan array binding signal (z-score),[26],-0.844
same,glycan array binding signal (z-score),[27],0.169
same,glycan array binding signal (z-score),[28],-0.12
same,glycan array binding signal (z-score),[29],0.16
same,glycan array binding signal (z-score),[30],-0.189
same,glycan array binding signal (z-score),[31],-0.459
same,glycan array binding signal (z-score),Fuc(a1-3)GlcNAc,-0.823
same,glycan array binding signal (z-score),[32],0.606
same,glycan array binding signal (z-score),[33],-0.54
same,glycan array binding signal (z-score),[34],-0.808
same,glycan array binding signal (z-score),[35],0.228
same,glycan array binding signal (z-score),[36],0.071

# Not a retest: an excerpt of the list.
binder,measurement,setting,value
B1,glycan array binding signal (z-score),[3],0.779
same,glycan array binding signal (z-score),[4],0.595
